# Data as given in PubChem BioAssay AID1259405 (NCATS, 2018)
# Screen: 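Silenced genes that increase secreted GFP made by CHO cells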 (primary screen)
# Cell system: Chinese hamster CHO-K1 ovary cells with stable secreted eGFP expression
# Reagents: single siRNA against mouse genes, 0.8 pmol siRNA per well (2 µl of 400 nM stock)
# Time to read-out: 3 days
# Measured: 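Percent of the per-plate non-targeting control median for intracellular GFP per well by laser scanning cytometry and for cell viability by ATP luminescence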
# Direction: GFP, % of control: higher = more GFP per well, higher productivity; viability (ATP), % of control: higher = more viable cells (more ATP)
# Hit rule: 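a knock-down is called active if GFP reaches 120% or more of non-targeting control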
# This is one part, drawn at random, of about 50,000 reagents. Over the whole deposit, about 4,000 (8%) got an active call. 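Mouse siRNA library applied to hamster cells; one well for each siRNA.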 Reagents against one gene are numbered here.
Target gene,reagent no.,"GFP, % of control","viability (ATP), % of control",Outcome
Pcdhgc3,1,76.4,72.9,inactive
Pcdhgc3,2,24.1,30.8,inactive
Pcdhgc3,3,53.3,64.7,inactive
Entpd2,1,52.6,91.6,inactive
Entpd2,2,32.2,50.1,inactive
Entpd2,3,47.9,81.1,inactive
Vmn1r49,1,47.3,70.4,inactive
Vmn1r49,2,57.1,66.4,inactive
Vmn1r49,3,83.8,93.5,inactive
Med15,1,83.4,77.6,inactive
Med15,2,89.6,51.2,inactive
Med15,3,104,138,inactive
Serf2,1,104,60.9,inactive
Serf2,2,54.4,41.4,inactive
Serf2,3,64.4,74.6,inactive
Cenpt,1,62.9,79.2,inactive
Cenpt,2,20.4,15.4,inactive
Cenpt,3,101,81.7,inactive
Arsb,1,82.9,92.7,inactive
Arsb,2,74.1,87.2,inactive
Arsb,3,93.2,44.2,inactive
Arsb,4,97.3,89.9,inactive
Arsb,5,60.1,60.6,inactive
Arsb,6,64.8,82.2,inactive
Galnt18,1,158,124,active
Galnt18,2,117,100,inactive
Galnt18,3,116,119,inactive
Thoc3,1,64.1,82.7,inactive
Thoc3,2,99.9,87.4,inactive
Thoc3,3,110,142,inactive
Egr2,1,49.2,85.2,inactive
Egr2,2,53.7,48.5,inactive
9330132A10Rik,1,82.2,68.5,inactive
9330132A10Rik,2,71.8,65.6,inactive
9330132A10Rik,3,89.8,97.9,inactive
Gvin1,1,66.8,78.9,inactive
Gvin1,2,60.6,73.3,inactive
Gvin1,3,67.3,85.6,inactive
Ddo,1,52.3,38.1,inactive
Ddo,2,89.4,82.9,inactive
Ddo,3,116,62.4,inactive
Dnajc30,1,94.4,90.4,inactive
Dnajc30,2,91.5,91.9,inactive
Stap2,1,77.8,71.5,inactive
Stap2,2,76.3,82.6,inactive
Stap2,3,69.8,83.2,inactive
Sorcs2,1,85.6,116,inactive
Sorcs2,2,81.1,73.9,inactive
Sorcs2,3,49.4,69.2,inactive
Aff3,1,47.3,59.8,inactive
Aff3,2,84.3,85.2,inactive
Aff3,3,65,90.5,inactive
Srsf5,1,60.6,76.9,inactive
Srsf5,2,58.1,41.2,inactive
Srsf5,3,38.3,41.6,inactive
Gpr22,1,181,47.5,active
Gpr22,2,71.6,65.6,inactive
Gpr22,3,80.2,62.1,inactive
Gpr22,4,119,86.2,inactive
Gpr22,5,85.7,79.7,inactive
Gpr22,6,96.7,95.3,inactive

Copied from the list:
Ddo #3, viability (ATP), % of control → 62.4
Entpd2 #1, viability (ATP), % of control: 91.6
Gpr22 #3, Outcome → inactive
